Where “and” joins values, the source holds several entries; their conditions need not be identical. Equal entries are not always repeated. Some of the results follow. Each value is one well over the wells without odorant, computed here; the data are noisy.
Tests used:
Experiment in all cases: odorant receptor activation (CRE luciferase / Renilla) (fold of no-odor wells); higher = more activation
Details in all cases: 100 µM
OR51F2 clone 1330 = system: OR51F2 clone 1330
OR51G1 clone 1165 = system: OR51G1 clone 1165
OR51G2 clone 1199 = system: OR51G2 clone 1199
OR51H1 clone 1187 = system: OR51H1 clone 1187
OR51I1 clone 1555 = system: OR51I1 clone 1555
OR51I2 clone 1133 = system: OR51I2 clone 1133
OR51J1 R75H clone 1698 = system: OR51J1 R75H clone 1698
OR51L1 I281M clone 1535 = system: OR51L1 I281M clone 1535
[1] = system: OR51L1 T196I/A207V clone 1533
OR51L1 clone 1183 = system: OR51L1 clone 1183
OR51L1 clone 1534 = system: OR51L1 clone 1534
[2] = system: OR51M1 H91Q/L124F/I193T/P245H/F307L clone 1121
OR51Q1 clone 1190 = system: OR51Q1 clone 1190
OR51S1 clone 1699 = system: OR51S1 clone 1699
OR51T1 clone 1326 = system: OR51T1 clone 1326
OR51V1 clone 1700 = system: OR51V1 clone 1700
OR51V1 clone 1701 = system: OR51V1 clone 1701
OR52A1 S272P clone 1151 = system: OR52A1 S272P clone 1151
OR52A4 clone 1719 = system: OR52A4 clone 1719
OR52A5 clone 1568 = system: OR52A5 clone 1568

| Structure (SMILES) | odorant receptor activation (OR51F2 clone 1330) | odorant receptor activation (OR51G1 clone 1165) | odorant receptor activation (OR51G2 clone 1199) | odorant receptor activation (OR51H1 clone 1187) | odorant receptor activation (OR51I1 clone 1555) | odorant receptor activation (OR51I2 clone 1133) | odorant receptor activation (OR51J1 R75H clone 1698) | odorant receptor activation (OR51L1 I281M clone 1535) | odorant receptor activation [1] | odorant receptor activation (OR51L1 clone 1183) | odorant receptor activation (OR51L1 clone 1534) | odorant receptor activation [2] | odorant receptor activation (OR51Q1 clone 1190) | odorant receptor activation (OR51S1 clone 1699) | odorant receptor activation (OR51T1 clone 1326) | odorant receptor activation (OR51V1 clone 1700) | odorant receptor activation (OR51V1 clone 1701) | odorant receptor activation (OR52A1 S272P clone 1151) | odorant receptor activation (OR52A4 clone 1719) | odorant receptor activation (OR52A5 clone 1568) |
| --- | --- | --- | --- | --- | --- | --- | --- | --- | --- | --- | --- | --- | --- | --- | --- | --- | --- | --- | --- | --- |
| CC=Cc1ccc(O)c(OC)c1 [isoeugenol] | 1.04 and 1.57 | 0.963 | 0.926 | 1.15 | 0.774 | 0.988 | 3.31 | 1.14 and 1.62 | 1.54 and 1.16 | 0.903 | 1.29 and 1.32 | 5.56 | 1.04 | 4.07 | 1.06 and 1.02 | 4.2 | 5.93 | 1.27 | 3.55 | 5.36 |
| CC(C)C=O [isobutyraldehyde] | 0.905 and 0.869 | 0.788 | 1.13 | 0.873 | 0.843 | 0.899 | 0.87 | 0.869 and 0.953 | 1.32 and 0.846 | 0.783 | 0.809 and 1.3 | 0.94 | 0.907 | 0.953 | 1.04 and 1.01 | 0.79 | 1 | 0.882 | 1.08 | 0.911 |
| C=CCSCC=C [diallyl sulfide] | 1.11 | 0.975 | 1.31 | 0.906 | 0.773 | 0.748 | 0.888 | 1.19 | 1.56 | 0.906 | 1.25 | 1.77 | 0.951 | 0.589 | 1.13 | 0.589 | 1.02 | 0.95 | 0.742 | 1.01 |
| c1ccc(Oc2ccccc2)cc1 [diphenyl ether] | 1.05 | 1.03 | 1.13 | 0.941 | 0.771 | 0.846 | 0.794 | 1.18 | 1.4 | 0.828 | 1.07 | 1.06 | 0.918 | 0.705 | 0.976 | 0.658 | 0.932 | 0.814 | 0.734 | 0.837 |
| CCC1(O)C2(C)CCC(C2)C1(C)C (stereo not given) [2-ethylfenchol] | 0.628 | 1.2 | 1.66 | 1.15 | 0.786 | 1.5 | 0.748 | 1.27 | 0.977 | 0.824 | 1.06 | 0.898 | 0.886 | 0.798 | 0.96 | 0.94 | 0.821 | 0.913 | 0.834 | 0.772 |
| CCCCCCCCOC(C)=O [octyl acetate] | 1.18 | 0.906 | 1.18 | 0.922 | 1.16 | 1.07 | 0.644 | 1.01 | 0.788 | 0.994 | 0.935 | 1.04 | 1.09 | 0.689 | 0.775 | 0.968 | 0.604 | 1.08 | 0.741 | 0.717 |
| CC1CCC(C(C)C)C(O)C1 (single isomer, unassigned; (-)) [(-)-menthol] | 0.851 | 1.07 | 1.18 | 1.12 | 1.01 | 1.23 | 0.726 | 3.45 | 2.03 | 1.05 | 3.38 | 0.919 | 0.937 | 0.764 | 0.692 | 1.08 | 0.892 | 0.94 | 0.88 | 1.15 |
| CC12CCC(CC1)C(C)(C)O2 [cineole] | 0.971 | 0.923 | 0.895 | 0.811 | 0.903 | 0.955 | 0.921 | 0.949 | 1.09 | 0.78 | 0.752 | 0.865 | 0.816 | 1.01 | 0.925 | 1.16 | 0.846 | 0.65 | 0.703 | 1.7 |
| c1cnccn1 [pyrazine] | 0.659 | 0.777 | 0.961 | 1.04 | 0.879 | 0.875 | 0.604 | 0.976 | 0.921 | 0.812 | 0.91 | 0.937 | 0.579 | 0.937 | 0.99 | 1.01 | 0.599 | 0.847 | 0.672 | 0.849 |
| CC(C)CCC(=O)O [4-methylvaleric acid] | 1.15 | 1.03 | 1.3 | 0.802 | 0.765 | 1.03 | 0.678 | 1.54 | 1.23 | 1.13 | 1.52 | 0.902 | 0.793 | 0.819 | 0.815 | 1.03 | 0.797 | 0.891 | 1.01 | 0.82 |
| CCCC(=O)O [butyric acid] | 0.833 | 0.986 | 0.913 | 1 | 1.02 | 1.25 | 1.08 | 0.866 | 0.942 | 1.07 | 0.826 | 1.1 | 0.852 | 1.32 | 0.832 | 0.752 | 0.873 | 0.927 | 0.635 | 1.06 |
| CCCCCCCC=O [octyl aldehyde] | 1 | 0.981 | 1.33 | 1.13 | 0.788 | 1.1 | 0.611 | 1.01 | 0.826 | 0.972 | 0.969 | 1.08 | 1.06 | 0.773 | 0.621 | 0.919 | 0.812 | 1.06 | 0.669 | 0.799 |
| O=C1CCCCCCCCCCCCCCO1 [pentadecalactone] | 0.722 | 0.763 | 0.689 | 0.875 | 0.761 | 0.758 | 0.592 | 0.806 | 0.893 | 0.697 | 0.965 | 0.843 | 0.561 | 0.7 | 0.754 | 0.959 | 0.564 | 0.712 | 0.724 | 0.767 |
| COc1ccccc1O [guaiacol] | 0.398 and 0.888 | 0.934 | 1.13 | 0.922 | 0.87 | 0.699 | 0.843 | 0.762 and 1.03 | 1.04 and 1.06 | 0.699 | 0.543 and 1.14 | 1.41 | 0.899 | 1.03 | 0.898 and 0.99 | 0.991 | 0.731 | 0.955 | 0.948 | 1.05 |
| CC(=O)OCC=C(C)CCC=C(C)C [geranyl acetate] | 0.513 and 1.26 | 0.868 | 1.03 | 0.806 | 1.22 | 1.06 | 1.12 | 0.765 and 1.48 | 1.34 and 1.31 | 0.835 | 0.922 and 1.58 | 2.41 | 1.08 | 1.29 | 0.953 and 0.803 | 1.55 | 0.981 | 0.967 | 1.5 | 1.54 |
| CC(=O)C(C)=O [diacetyl] | 1.24 | 1.06 | 1.3 | 0.881 | 0.966 | 0.823 | 0.753 | 1.3 | 1.61 | 1.23 | 1.49 | 1.54 | 0.938 | 0.594 | 1.19 | 0.627 | 0.88 | 1.09 | 0.968 | 1 |
| CC12CCC(C1)C(C)(C)C2=O (stereo not given) [fenchone] | 1.05 | 0.859 | 1.03 | 0.764 | 0.791 | 0.74 | 0.649 | 0.992 | 1.61 | 1.05 | 1.12 | 1.55 | 0.787 | 0.813 | 0.997 | 0.944 | 0.642 | 0.849 | 0.912 | 0.96 |
| CCCCCCOC(=O)CCC [hexyl butyrate] | 1.11 and 0.785 | 0.896 | 0.846 | 0.908 | 0.774 | 0.936 | 0.794 | 1.35 and 0.807 | 1.41 and 0.838 | 0.914 | 0.96 and 0.885 | 1.15 | 0.833 | 0.821 | 0.775 and 0.747 | 0.768 | 0.794 | 0.977 | 0.913 | 0.995 |
| CCCCCC(=O)O [caproic acid] | 0.778 | 0.822 | 0.854 | 0.928 | 1.01 | 1.3 | 0.891 | 1.85 | 2.17 | 1.45 | 2.56 | 0.899 | 0.906 | 1.05 | 0.83 | 0.783 | 0.716 | 0.922 | 0.336 | 1.18 |
| CCCCCCCCCCC=O [undecanal] | 0.748 | 1.07 | 0.968 | 0.831 | 5.91 | 0.877 | 1.05 | 0.896 | 0.887 | 1.2 | 0.981 | 0.893 | 0.91 | 1.02 | 0.97 | 1.23 | 0.784 | 0.843 | 0.876 | 1.17 |
| CC(C)C(=O)O [isobutyric acid] | 1.05 and 0.866 | 0.877 | 1.07 | 0.909 | 0.821 | 0.764 | 0.809 | 0.881 and 0.74 | 1.2 and 0.729 | 0.869 | 0.989 and 0.869 | 1.07 | 1.12 | 1.03 | 1.05 and 1.06 | 1.05 | 1.13 | 0.994 | 0.854 | 0.794 |
| CC/C=C\CCO [cis-3-hexen-1-ol] | 0.941 | 0.998 | 0.866 | 1.05 | 1 | 1.19 | 1.02 | 0.941 | 0.903 | 0.959 | 0.862 | 0.941 | 0.869 | 1.03 | 0.835 | 1.11 | 0.963 | 0.813 | 0.659 | 1.24 |
| CC1CCC(C(C)C)C(O)C1 (single isomer, unassigned; (+)) [(+)-menthol] | 0.748 | 1.83 | 1.27 | 1.13 | 1.13 | 1.31 | 0.744 | 1.22 | 1.2 | 1.61 | 1.04 | 0.717 | 1.14 | 0.817 | 1.13 | 0.876 | 0.878 | 1.3 | 0.869 | 0.872 |
| O=CCc1ccccc1 [phenyl acetaldehyde] | 0.774 | 0.95 | 0.896 | 1.51 | 1.53 | 1.02 | 1.27 | 4.92 | 2.57 | 1.94 | 4.51 | 1.28 | 0.723 | 1.72 | 0.959 | 1.92 | 1.83 | 1.18 | 1.71 | 2.16 |
| COc1cc(C=O)ccc1O [vanillin] | 0.774 | 1.01 | 0.968 | 0.996 | 0.87 | 0.979 | 0.565 | 0.915 | 0.91 | 1.19 | 0.919 | 0.856 | 0.891 | 1.52 | 1.02 | 0.716 | 0.751 | 1.08 | 0.493 | 0.974 |
| CC(=O)OC1CC2CCC1(C)C2(C)C (stereo not given) [isobornyl acetate] | 0.789 and 0.798 | 1 | 1.2 | 0.866 | 0.907 | 0.745 | 0.89 | 1.1 and 0.909 | 1.38 and 0.786 | 0.87 | 0.864 and 0.997 | 1.17 | 1.01 | 1.21 | 0.838 and 1.23 | 1 | 1.03 | 1.09 | 0.918 | 0.875 |

No new results follow: entries from further up.

| Structure (SMILES) | odorant receptor activation (OR51F2 clone 1330) | odorant receptor activation (OR51G1 clone 1165) | odorant receptor activation (OR51G2 clone 1199) | odorant receptor activation (OR51H1 clone 1187) | odorant receptor activation (OR51I1 clone 1555) | odorant receptor activation (OR51I2 clone 1133) | odorant receptor activation (OR51J1 R75H clone 1698) | odorant receptor activation (OR51L1 I281M clone 1535) | odorant receptor activation [1] | odorant receptor activation (OR51L1 clone 1183) | odorant receptor activation (OR51L1 clone 1534) | odorant receptor activation [2] | odorant receptor activation (OR51Q1 clone 1190) | odorant receptor activation (OR51S1 clone 1699) | odorant receptor activation (OR51T1 clone 1326) | odorant receptor activation (OR51V1 clone 1700) | odorant receptor activation (OR51V1 clone 1701) | odorant receptor activation (OR52A1 S272P clone 1151) | odorant receptor activation (OR52A4 clone 1719) | odorant receptor activation (OR52A5 clone 1568) |
| --- | --- | --- | --- | --- | --- | --- | --- | --- | --- | --- | --- | --- | --- | --- | --- | --- | --- | --- | --- | --- |
| CC12CCC(CC1)C(C)(C)O2 [cineole] | 0.971 | 0.923 | 0.895 | 0.811 | 0.903 | 0.955 | 0.921 | 0.949 | 1.09 | 0.78 | 0.752 | 0.865 | 0.816 | 1.01 | 0.925 | 1.16 | 0.846 | 0.65 | 0.703 | 1.7 |
| c1cnccn1 [pyrazine] | 0.659 | 0.777 | 0.961 | 1.04 | 0.879 | 0.875 | 0.604 | 0.976 | 0.921 | 0.812 | 0.91 | 0.937 | 0.579 | 0.937 | 0.99 | 1.01 | 0.599 | 0.847 | 0.672 | 0.849 |
| CC(C)CCC(=O)O [4-methylvaleric acid] | 1.15 | 1.03 | 1.3 | 0.802 | 0.765 | 1.03 | 0.678 | 1.54 | 1.23 | 1.13 | 1.52 | 0.902 | 0.793 | 0.819 | 0.815 | 1.03 | 0.797 | 0.891 | 1.01 | 0.82 |
| CCCC(=O)O [butyric acid] | 0.833 | 0.986 | 0.913 | 1 | 1.02 | 1.25 | 1.08 | 0.866 | 0.942 | 1.07 | 0.826 | 1.1 | 0.852 | 1.32 | 0.832 | 0.752 | 0.873 | 0.927 | 0.635 | 1.06 |
| CCCCCCCC=O [octyl aldehyde] | 1 | 0.981 | 1.33 | 1.13 | 0.788 | 1.1 | 0.611 | 1.01 | 0.826 | 0.972 | 0.969 | 1.08 | 1.06 | 0.773 | 0.621 | 0.919 | 0.812 | 1.06 | 0.669 | 0.799 |
| O=C1CCCCCCCCCCCCCCO1 [pentadecalactone] | 0.722 | 0.763 | 0.689 | 0.875 | 0.761 | 0.758 | 0.592 | 0.806 | 0.893 | 0.697 | 0.965 | 0.843 | 0.561 | 0.7 | 0.754 | 0.959 | 0.564 | 0.712 | 0.724 | 0.767 |

Source: the odorant receptor screen of Mainland et al. (2015)
